Data as given in PubChem BioAssay AID1159594 (NIAID, 2016).
Purpose: 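Mapping how TLR pathway genes contribute to TLR2/6 signalling in macrophage-like cells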. Cells: human THP-1 B5 reporter cells, PMA-differentiated into macrophage-like cells. Reagent: single siRNA against human genes. Time to read-out: 48 to 72 hours after siRNA transfection; ligand exposure 4 hours. Conditions: Pam2CSK4 (TLR2/6 agonist) stimulation for 4 hours before lysis; dose not given. Read-out: 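Robust z-score, relative to negative controls, of the firefly/renilla ratio from a TNF promoter reporter, after per-plate median/MAD scaling, mean of replicate screens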. Direction: TNF reporter z-score: higher = stronger TNF promoter reporter activity. Active means: 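Active when the mean z-score across replicates is at or beyond ±1.5 in either direction, matching a depositor grade of 50 or higher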. Meaning of the calls: active = z-score beyond ±1.5 (either direction); inactive = z-score within ±1.5.
Shown is an unselected part of 756 reagents tested. In the full data, 130 (17%) got an active call. 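Active calls cover both falls and rises of reporter activity; each row reflects one siRNA, not a gene-level verdict.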 The numbers tell different reagents against one gene apart. Reagent sequences are not shown. The record does not give: the amount of reagent.

no.	Target gene	reagent no.	TNF reporter z-score, replicate mean	call
1	AKT1	1	0.843	inactive
2	AKT1	2	0.842	inactive
3	AKT1	3	-2.57	active
4	AKT1	4	-0.0187	inactive
5	AKT1	5	0.337	inactive
6	AKT1	6	-0.981	inactive
7	CYLD	1	0.362	inactive
8	CYLD	2	-0.835	inactive
9	CYLD	3	0.895	inactive
10	CYLD	4	0.0904	inactive
11	CYLD	5	0.202	inactive
12	CYLD	6	-1.12	inactive
13	CXCL11	1	-0.918	inactive
14	CXCL11	2	0.452	inactive
15	CXCL11	3	0.202	inactive
16	CXCL11	4	0.215	inactive
17	CXCL11	5	-0.225	inactive
18	CXCL11	6	0.166	inactive
19	LY86	1	0.31	inactive
20	LY86	2	-0.107	inactive
21	LY86	3	0.000125	inactive
22	LY86	4	-1.08	inactive
23	LY86	5	-0.449	inactive
24	LY86	6	0.146	inactive
25	MAP2K3	1	-0.738	inactive
26	MAP2K3	2	-1.29	inactive
27	MAP2K3	3	-0.688	inactive
28	MAP2K3	4	-2.95	active
29	MAP2K3	5	-0.331	inactive
30	MAP2K3	6	-3.67	active
31	EP300	1	1.69	active
32	EP300	2	0.0618	inactive
33	EP300	3	0.2	inactive
34	EP300	4	0.405	inactive
35	EP300	5	-0.531	inactive
36	EP300	6	1.98	active
37	MAP3K1	1	-0.431	inactive
38	MAP3K1	2	-0.446	inactive
39	MAP3K1	3	-0.0689	inactive
40	MAP3K1	4	-2.94	active
41	MAP3K1	5	-0.408	inactive
42	MAP3K1	6	-1	inactive
43	IRAK3	1	-0.796	inactive
44	IRAK3	2	-0.304	inactive
45	IRAK3	3	0.262	inactive
46	IRAK3	4	-0.44	inactive
47	IRAK3	5	-0.506	inactive
48	IRAK3	6	-0.447	inactive
49	TAB2	1	0.798	inactive
50	TAB2	2	-0.381	inactive
51	TAB2	3	-2.4	active
52	TAB2	4	-3.12	active
53	TAB2	5	-5.03	active
54	TAB2	6	-1.7	active
55	MAPK3	1	-0.46	inactive
56	MAPK3	2	-1.31	inactive
57	MAPK3	3	-1.24	inactive
58	MAPK3	4	0.503	inactive
59	MAPK3	5	-1.91	active
60	MAPK3	6	-1.33	inactive
61	TLR9	1	-1.19	inactive
62	TLR9	2	-0.0044	inactive
63	TLR9	3	0.762	inactive
64	TLR9	4	1.34	inactive
65	TLR9	5	0.232	inactive
66	TLR9	6	1.02	inactive
67	TLR7	1	0.0564	inactive
68	TLR7	2	0.598	inactive
69	TLR7	3	-0.0597	inactive
70	TLR7	4	-0.747	inactive
71	TLR7	5	-0.801	inactive
72	TLR7	6	-0.573	inactive
73	MAP2K4	1	-1.33	inactive
74	MAP2K4	2	-1.57	active
75	MAP2K4	3	-0.27	inactive
76	MAP2K4	4	-0.0765	inactive
77	MAP2K4	5	-0.202	inactive
78	MAP2K4	6	0.0929	inactive
79	MAP3K7	1	-2.34	active
80	MAP3K7	2	-3.47	active
81	MAP3K7	3	-5.1	active
82	MAP3K7	4	-2.37	active
83	MAP3K7	5	-4.93	active
84	MAP3K7	6	-3.52	active
85	UBE2V1	1	0.927	inactive
86	UBE2V1	2	0.0274	inactive
87	UBE2V1	3	0.00676	inactive
88	UBE2V1	4	-1.2	inactive
89	UBE2V1	5	-0.000804	inactive
90	UBE2V1	6	-0.55	inactive
91	LBP	1	-0.17	inactive
92	LBP	2	-0.859	inactive
93	LBP	3	0.615	inactive
94	LBP	4	-1.28	inactive
95	LBP	5	-0.142	inactive
96	LBP	6	0.395	inactive
97	TBK1	1	-0.972	inactive
98	TBK1	2	-1.32	inactive
99	TBK1	3	0.576	inactive
100	TBK1	4	0.283	inactive
101	TBK1	5	-0.966	inactive
102	TBK1	6	-0.794	inactive
103	CHUK	1	-1.1	inactive
104	CHUK	2	-0.269	inactive
105	CHUK	3	-0.16	inactive
106	CHUK	4	-0.46	inactive
107	CHUK	5	-0.767	inactive
108	CHUK	6	0.00306	inactive
109	CD180	1	-0.597	inactive
110	CD180	2	-0.616	inactive
111	CD180	3	0.0612	inactive
112	CD180	4	-0.0543	inactive
113	CD180	5	-1.12	inactive
114	CD180	6	0.00491	inactive

No new results follow: 5 of the entries above.
no.	Target gene	reagent no.	TNF reporter z-score, replicate mean	call
35	EP300	5	-0.531	inactive
36	EP300	6	1.98	active
37	MAP3K1	1	-0.431	inactive
38	MAP3K1	2	-0.446	inactive
39	MAP3K1	3	-0.0689	inactive
